Assay results taken from paper PMC10147665.
These are yes or no findings as the source states them, for the method shown. Binding seen in cells or lysates may run through a third protein. Some binding calls cover weakened binding; strength is not graded here. Sequences can lack the tags named with a protein.

Experiments:
[1] = molecular target: T1, FLAG-tagged PID1 (Phosphotyrosine interaction domain-containing protein 1) (human) (UniProt Q7Z2X4); assay: co-IP; as a1, with alkaline phosphatase (ALP) treatment
T1 sequence: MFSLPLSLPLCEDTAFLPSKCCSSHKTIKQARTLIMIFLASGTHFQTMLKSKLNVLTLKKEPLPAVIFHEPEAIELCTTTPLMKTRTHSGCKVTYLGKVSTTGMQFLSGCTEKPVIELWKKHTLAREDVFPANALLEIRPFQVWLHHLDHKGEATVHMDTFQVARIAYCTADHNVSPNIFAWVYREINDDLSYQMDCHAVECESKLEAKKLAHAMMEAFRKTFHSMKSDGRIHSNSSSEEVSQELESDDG

[2] = molecular target: T1, FLAG-tagged PID1 (Phosphotyrosine interaction domain-containing protein 1) (human); assay: co-IP; FLAG-tagged PID1 immunoprecipitated from RIPA lysates, blot for endogenous PDPK1; cells with or without growth factors; antibody 2 h, Protein A/G agarose 12 h, 4 °C

binding [1]: binds weakly
binding [2]: binds
B1: endogenous PDPK1 (protein, UniProt O15530 1-556)
chain: MARTTSQLYDAVPIQSSVVLCSCPSPSMVRTQTESSTPPGIPGGSRQGPAMDGTAAEPRPGAGSLQHAQPPPQPRKKRPEDFKFGKILGEGSFSTVVLARELATSREYAIKILEKRHIIKENKVPYVTRERDVMSRLDHPFFVKLYFTFQDDEKLYFGLSYAKNGELLKYIRKIGSFDETCTRFYTAEIVSALEYLHGKGIIHRDLKPENILLNEDMHIQITDFGTAKVLSPESKQARANSFVGTAQYVSPELLTEKSACKSSDLWALGCIIYQLVAGLPPFRAGNEYLIFQKIIKLEYDFPEKFFPKARDLVEKLLVLDATKRLGCEEMEGYGPLKAHPFFESVTWENLHQQTPPKLTAYLPAMSEDDEDCYGNYDNLLSQFGCMQVSSSSSSHSLSASDTGLPQRSGSNIEQYIHDLDSNSFELDLQFSEDEKRLLLEKQAGGNPWHQFVENNLILKMGPVDKRKGLFARRRQLLLTEGPHLYYVDPVNKVLKGEIPWSQELRPEAKNFKTFFVHTPNRTYYLMDPSGNAHKWCRKIQEVWRQRYQSHPDAAVQ
